Measured values reported in US8765669B2 (Glytech, Inc., priority 2008, dated 2014).

Experiment: general procedure: Fmoc solid-phase peptide synthesis; Rink-Amido-PEGA resin; HCTU.HOBT/NMP, DIPEA (first residue: MSNT, N-methylimidazole)
Settings: whole synthesis, scale 100 μmol

30-residue peptide wherein 26Lys of BIM51077 was substituted with Cys
isolated mass: 12 mg
